This series can be described thus: peptide made by a vendor. The following applies: whole synthesis.

Consider H-DPVDAVINTTCNYGQVVAALNATD-OH, for which the outcome is given as “Synthesis of P1 peptide was unsuccessful due to extreme hydrophobicity”.

Values taken from patent publication US6664096B2 (priority 2000, dated 2003).
